Measurements: US20090312437A1, “Anthraquinones and Analogs from Rhuem palmatum for Treatment of Estrogen Receptor Beta-Mediated Conditions” (Bionovo, Inc., A Delaware Corporation, priority 2008, published 2009)
At least one compound was matched to its structure with a doubt left.

Test system: MCF-7 breast cancer cells
Experiment: MCF-7 kidney capsule graft tumor formation in nude mice
Type: in vivo, CD-1/Nude female mice
Details: kidney capsule xenografts; compared with control or octahydroxyanthraquinone treated mice
Method: The effects of 6 were tested in vivo on breast cancer tumor formation and uterine proliferation. CD-1/Nude female mice, 40-50 days old at time of grafting were selected. Each mouse received 2 grafts per kidney, 4 grafts total with MCF-7 breast cancer cells in 25 μL collagen per graft. Compound 6 was delivered subcutaneously with a Alzet Osmotic pump filled with 200 μL of 6 for 28 days. […] At the end of 28 days of treatment, all grafts and uteri were isolated, pictures taken, weighed, and fixed in formalin.

C[C@]12CC[C@@H]3c4ccc(O)cc4CC[C@H]3[C@@H]1CC[C@@H]2O [estradiol, reference compound]
MCF-7 tumor weight after 28 days: much greater
